Measured values reported in US8980830B2 (priority 2007, dated 2015).

Assays:
[1] = solid-phase peptide synthesis
[2] = Fmoc solid-phase peptide synthesis; Rink MBHA amide resin; HBTU (Boc); DIC/HOBT (Fmoc); BEPBT/DEPBT for PLA coupling and lactam formation; conditions: whole synthesis, scale 0.1 mmole
[3] = whole synthesis, analytical HPLC, Zorbax C8, 214 nm, MALDI or ESI-MS, scale of the general procedure 0.2 mmole (Boc), 0.1 mmole (Fmoc)

Substance: PLA TSDYSKYLDERRAKDFVQWLMDT (SEQ ID NO: 6)
- final HPLC purity [1, 3]: 95%
- isolated yield ([1]; whole synthesis, overall, scale of the general procedure 0.2 mmole (Boc), 0.1 mmole (Fmoc)): 10˜15%
- isolated mass ([1]; whole synthesis, scale 0.1 mmole): 20˜30 mg
- crude mass [2]: 150 to 250 mg

Substance: [PLA6, E16K20(Lactam), C24(20 kDa), D28]G(6-29) (FTSDYSKYLDERRAKDFVCWLMDT; PLA6, E16-K20 lactam, 20 kDa PEG on C24, amide)
- final HPLC purity ([1]; conjugation step, 214 nm): 90% HPLC purity

Substance: Glucagon Cys^24 Mal-PEG-20K
- final HPLC purity ([1]; conjugation step, analytical HPLC, Zorbax C8, 214 nm, MALDI or ESI-MS): ˜90%

Substance: Glucagon Cys^17 Mal-PEG-5K
- final HPLC purity ([1]; conjugation step, 214 nm): aprox. 90%

Substance: Glucagon Cys^29 Mal-PEG-5K
- final HPLC purity ([1]; conjugation step, 214 nm): greater than 95%

Substance: HSQGTFTSDYSKYLDSRRAQDFVQWLMNTGPSSGAPPPS
- final HPLC purity [1, 3]: greater than 95%

For part of these data: End groups of sequences in plain letters are not given here.
